This assay deals with integrin αvβ3 (UniProt P06756). The assay can be described thus: adhesion of 293 cells stably transfected with integrin heterodimers to Angptl3-coated microtiter plates, OD405.

The chains behind the UniProt entries cited, without tags or fusion partners. Where a name states a change or a piece, a line headed by the entry shows the natural chain unless it says otherwise.
UniProt P06756: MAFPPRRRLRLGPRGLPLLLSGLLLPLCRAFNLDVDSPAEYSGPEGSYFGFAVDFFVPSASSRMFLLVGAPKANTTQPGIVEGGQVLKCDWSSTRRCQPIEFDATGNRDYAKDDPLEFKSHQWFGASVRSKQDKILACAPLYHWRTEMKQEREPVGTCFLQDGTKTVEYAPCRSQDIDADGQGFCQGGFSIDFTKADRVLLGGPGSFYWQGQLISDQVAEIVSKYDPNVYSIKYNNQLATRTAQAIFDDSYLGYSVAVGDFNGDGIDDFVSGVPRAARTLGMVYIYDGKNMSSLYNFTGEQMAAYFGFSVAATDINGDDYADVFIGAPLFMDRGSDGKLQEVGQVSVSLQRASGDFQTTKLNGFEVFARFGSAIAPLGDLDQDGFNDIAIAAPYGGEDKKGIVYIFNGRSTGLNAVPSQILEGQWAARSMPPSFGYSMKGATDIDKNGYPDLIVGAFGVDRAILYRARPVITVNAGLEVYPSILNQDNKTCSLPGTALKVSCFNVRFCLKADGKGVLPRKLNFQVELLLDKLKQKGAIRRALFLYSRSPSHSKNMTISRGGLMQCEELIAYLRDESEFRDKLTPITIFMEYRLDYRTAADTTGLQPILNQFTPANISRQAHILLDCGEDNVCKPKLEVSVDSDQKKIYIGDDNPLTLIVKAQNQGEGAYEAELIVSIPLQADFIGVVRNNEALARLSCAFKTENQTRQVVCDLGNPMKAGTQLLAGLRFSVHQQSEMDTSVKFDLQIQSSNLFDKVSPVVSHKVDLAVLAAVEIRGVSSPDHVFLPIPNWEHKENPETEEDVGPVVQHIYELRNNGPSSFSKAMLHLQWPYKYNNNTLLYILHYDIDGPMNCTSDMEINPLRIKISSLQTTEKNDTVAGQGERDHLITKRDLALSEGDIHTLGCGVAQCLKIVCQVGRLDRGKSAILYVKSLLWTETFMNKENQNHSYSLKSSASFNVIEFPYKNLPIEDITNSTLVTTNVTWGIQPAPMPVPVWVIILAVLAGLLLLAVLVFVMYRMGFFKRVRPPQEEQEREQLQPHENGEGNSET

These are yes or no findings as the source states them, for the method shown. Some entries that bind do so weakly or less than the wild type. Sequences can lack the tags named with a protein.

B1: recombinant human Angptl3 tagged with an amino-terminal gD epitope (ligand, not shown: small tags and cut ends)
chain: SRIDQDNSSFDSLSPEPKSRFAMLDDVKILANGLLQLGHGLKDFVHKTKGQINDIFQKLNIFDQSFYDLSLQTSEIKEEEKELRRTTYKLQVKNEEVKNMSLELNSKLESLLEEKILLQQKVKYLEEQLTNLIQNQPETPEHPEVTSLKTFVEKQDNSIKDLLQTVEDQYKQLNQQHSQIKEIENQLRRTSIQEPTEISLSSKPRAPRTTPFLQLNEIRNVKHDGIPAECTTIYNRGEHTSGMYAIRPSNSQVFHVYCDVISGSPWTLIQHRIDGSQNFNETWENYKYGFGRLDGEFWLGLEKIYSIVKQSNYVLRIELEDWKDNKHYIEYSFYLGNHETNYTLHLVAITGNVPNAIPENKDLVFSTWDHKAKGHFNCPEGYSGGWWWHDECGENNLNGKYNKPRAKSKPERRRGLSWKSQNGRLYSIKSTKMLIHPTDSESFE
modifications: glycosylated (PNGase-F sensitive)
B1: the binding result is “binds”.

The values above are taken from US20030215451A1.
